From publication PMC9536273
No constants are given. Whether binding was seen depends on the method and setting. In cells and extracts the contact can be indirect. Some results given as binding are weak or reduced against the parent protein; the word gives no strength.

Protein sequences, listed by entry. Tags and fused reporters are not part of them. Lines headed by an entry give the natural chain unless they say otherwise; changes in a name come on top. Residues count along the entry.
UniProt P05556: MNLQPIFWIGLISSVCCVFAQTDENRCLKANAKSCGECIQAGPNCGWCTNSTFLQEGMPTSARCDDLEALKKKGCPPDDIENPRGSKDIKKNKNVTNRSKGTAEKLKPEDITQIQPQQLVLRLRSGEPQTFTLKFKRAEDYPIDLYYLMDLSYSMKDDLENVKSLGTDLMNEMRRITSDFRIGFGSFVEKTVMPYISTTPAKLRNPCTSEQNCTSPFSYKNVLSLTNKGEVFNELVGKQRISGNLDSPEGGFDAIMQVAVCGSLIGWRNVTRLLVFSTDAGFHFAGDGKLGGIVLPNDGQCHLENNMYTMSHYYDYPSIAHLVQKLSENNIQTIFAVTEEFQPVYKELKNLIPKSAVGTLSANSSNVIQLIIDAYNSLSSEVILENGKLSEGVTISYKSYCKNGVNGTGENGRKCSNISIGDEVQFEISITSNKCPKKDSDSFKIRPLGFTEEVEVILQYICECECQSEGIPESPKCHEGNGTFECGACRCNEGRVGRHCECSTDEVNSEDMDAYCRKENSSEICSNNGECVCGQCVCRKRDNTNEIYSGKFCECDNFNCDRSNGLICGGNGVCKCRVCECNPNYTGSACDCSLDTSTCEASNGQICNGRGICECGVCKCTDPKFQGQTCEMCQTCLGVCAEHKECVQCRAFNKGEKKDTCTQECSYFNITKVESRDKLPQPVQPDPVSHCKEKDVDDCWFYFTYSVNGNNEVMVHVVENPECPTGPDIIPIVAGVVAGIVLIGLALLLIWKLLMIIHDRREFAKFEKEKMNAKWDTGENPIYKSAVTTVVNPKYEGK
UniProt P62835: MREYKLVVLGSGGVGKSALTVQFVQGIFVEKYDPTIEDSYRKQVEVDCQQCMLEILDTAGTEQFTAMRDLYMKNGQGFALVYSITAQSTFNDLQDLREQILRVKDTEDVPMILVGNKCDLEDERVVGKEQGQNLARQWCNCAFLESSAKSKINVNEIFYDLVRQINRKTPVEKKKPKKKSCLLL
UniProt P62834: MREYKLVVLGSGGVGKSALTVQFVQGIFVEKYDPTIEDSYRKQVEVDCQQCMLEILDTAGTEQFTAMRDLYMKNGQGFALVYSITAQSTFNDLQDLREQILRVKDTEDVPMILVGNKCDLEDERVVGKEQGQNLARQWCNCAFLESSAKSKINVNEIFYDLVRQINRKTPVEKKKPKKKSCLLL
UniProt P09055, residues 21-798: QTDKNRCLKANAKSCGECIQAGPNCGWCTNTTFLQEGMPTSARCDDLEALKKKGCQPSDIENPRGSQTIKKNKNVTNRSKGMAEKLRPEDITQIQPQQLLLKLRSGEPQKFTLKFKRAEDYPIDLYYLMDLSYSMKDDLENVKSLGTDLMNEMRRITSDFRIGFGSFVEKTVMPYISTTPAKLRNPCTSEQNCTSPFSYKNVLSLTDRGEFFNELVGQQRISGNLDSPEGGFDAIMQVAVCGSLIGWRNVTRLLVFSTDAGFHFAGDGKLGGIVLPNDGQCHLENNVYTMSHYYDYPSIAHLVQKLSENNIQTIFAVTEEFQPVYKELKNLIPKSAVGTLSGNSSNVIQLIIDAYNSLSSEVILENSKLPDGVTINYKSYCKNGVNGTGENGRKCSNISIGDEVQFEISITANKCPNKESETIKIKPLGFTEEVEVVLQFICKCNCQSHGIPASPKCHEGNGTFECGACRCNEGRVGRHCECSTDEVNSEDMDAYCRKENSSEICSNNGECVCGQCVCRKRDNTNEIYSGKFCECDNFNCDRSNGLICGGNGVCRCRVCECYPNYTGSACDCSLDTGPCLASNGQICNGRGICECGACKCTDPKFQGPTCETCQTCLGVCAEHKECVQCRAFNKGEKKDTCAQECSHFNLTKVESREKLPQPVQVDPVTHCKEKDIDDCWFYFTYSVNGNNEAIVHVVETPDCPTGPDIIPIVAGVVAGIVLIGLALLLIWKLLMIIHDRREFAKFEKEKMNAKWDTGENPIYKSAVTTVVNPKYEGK

Experiments:
[1] = target: β1 integrin (human, SKCO-15) (human (endogenous in SKCO-15)) (UniProt P05556); assay: co-IP; lysates of human SKCO-15 IEC, control and JAM-A knockdown; relaxation lysis buffer with 1% octyl-β-glucoside; IP with antibodies (5 μg/mL, overnight, 4°C), protein A or G Dynabeads; immunoblot
[2] = target: Rap1A (mouse (endogenous in primary colonic epithelial cells)) (UniProt P62835); assay: co-IP; lysates of spread primary mouse IEC (2D colonoids) from Jam-a fl/fl and tamoxifen-treated Jam-a ERdeltaIEC mice; relaxation lysis buffer (10 mM HEPES, 10 mM NaCl, 3.5 mM MgCl2, 100 mM KCl) with 1% octyl-β-glucoside; IP with anti-Rap1A or anti-β1 integrin antibody (5 μg/mL, overnight, 4°C), protein A or G Dynabeads; immunoblot for talin, β1 integrin, Rap1A
[3] = target: Rap1A (human, SKCO-15) (human (endogenous in SKCO-15)) (UniProt P62834); assay: co-IP; lysates of human SKCO-15 IEC, control and JAM-A knockdown; relaxation lysis buffer with 1% octyl-β-glucoside; IP with antibodies (5 μg/mL, overnight, 4°C), protein A or G Dynabeads; immunoblot
[4] = target: β1 integrin (mouse (endogenous in primary colonic epithelial cells)) (UniProt P09055); assay: co-IP; lysates of spread primary mouse IEC (2D colonoids) from Jam-a fl/fl and tamoxifen-treated Jam-a ERdeltaIEC mice; relaxation lysis buffer (10 mM HEPES, 10 mM NaCl, 3.5 mM MgCl2, 100 mM KCl) with 1% octyl-β-glucoside; IP with anti-Rap1A or anti-β1 integrin antibody (5 μg/mL, overnight, 4°C), protein A or G Dynabeads; immunoblot for talin, β1 integrin, Rap1A

Which binding [1] does the source give for “Rap1A (human, SKCO-15) (from UniProt P62834 1-184)” here?
Its binding is “binds”.

“β1 integrin (from UniProt P09055 21-798) (receptor)” was tested. Which binding [2] did it give?
Its binding is “binds”.

How did the binding [3] turn out when “β1 integrin (human, SKCO-15) (from UniProt P05556 21-798) (receptor)” was run?
Its binding is “binds”.

For Rap1A (from UniProt P62835 1-184), which binding [4] is on record?
The binding was “binds”.
